Source: the supplement of paper PMC11732987, “Enantioselective OTUD7B fragment discovery through chemoproteomics screening and high-throughput optimisation” (Communications Chemistry, 2025)
Some of the results follow. The data scatter; read single values as rough.

Legend:
[1] = compound: ClCC(=O)N[C@@H]1CCCc2ccccc12; test: log2 mean competition ratio of IA-DTB cysteine labelling (DMSO/compound) (log2 ratio); higher = stronger cysteine engagement by compound; details: treatment time: 4 h, cell line lysate: HEK293T
Description: (§1)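 IA-DTB competitive cysteine chemoproteomics in HEK293T RIPA lysate. Lysates were treated with compound 29 or 30 at 50 or 200 µM for 4 h, then IA-DTB (500 µM, 1 h), trypsin-digested, NeutrAvidin-enriched and analysed by diaPASEF. Competition ratio = intensity DMSO / intensity compound (n=4 treated, n=64 DMSO); binding: mean log2 CR ≥ 1 and p ≤ 0.05 plus QC filters. Target is the cysteine site.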

[2] = compound: ClCC(=O)N[C@H]1CCCc2ccccc12; test: as above; details: treatment time: 4 h, cell line lysate: HEK293T
Description: as §1

Target | log2 mean competition ratio ([1]; 50 µM) | log2 mean competition ratio ([1]; 200 µM) | log2 mean competition ratio ([2]; 50 µM) | log2 mean competition ratio ([2]; 200 µM)
NCAPH2 C230 (UniProt Q6IBW4) | -0.129 | 0.117 | -0.0933 | 0.162
NOCT C136 (UniProt Q9UK39) | -0.0131 | -0.173 | -0.289 | -0.165
NAT14 C108 (UniProt Q8WUY8) | -0.163 | 0.0532 | 0.255 | 0.0994
NOPCHAP1 C13 | 0.0736 | -0.165 | 0.0191 | -0.0286
NEURL4 C1208 (UniProt Q96JN8) | 0.247 | 0.0885 | 0.274 | 0.0414
NNT C1073 (UniProt Q13423) | -0.122 | -0.215 | -0.0418 | 0.145
NOP10 C28 (UniProt Q9NPE3) | 0.371 | -0.343 | 0.24 | 0.157
NNT C936 (UniProt Q13423) | 0.1 | -0.182 | 0.136 | -0.0798
NEK4 C724 (UniProt P51957) | -0.273 | -0.018 | 0.276 | -0.188
NFXL1 C539 (UniProt Q6ZNB6) | -0.214 | 0.0633 | -0.262 | 0.0149
NCOR2 C866 | 0.0396 | -0.146 | -0.143 | -0.114
NIN C647 (UniProt Q8N4C6) | -0.335 | -0.109 | -0.00565 | 0.141
NBEA C369 (UniProt Q8NFP9) | 0.0559 | -0.342 | 0.2 | -0.497
NCOR1 C2322 (UniProt O75376) | 0.421 | -0.315 | 0.478 | -0.387
NID1 C1135 | 0.0869 | 0.00528 | -0.438 | -0.101
NFATC1 C533 (UniProt O95644) | -0.304 | -0.63 | 0.212 | -0.00639
NIT2 C153 (UniProt Q9NQR4) | 0.0977 | 0.0331 | -0.0591 | 0.378
NEU3 C415 (UniProt Q9UQ49) | -0.247 | 0.151 | -0.331 | 0.0639
NDRG3 C290 (UniProt Q9UGV2) | -0.0481 | 0.0479 | 0.279 | 0.202
NOL6 C486 (UniProt Q9H6R4) | 0.411 | -0.731 | 0.112 | -0.477
NCK2 C343 (UniProt O43639) | -0.0607 | -0.189 | -0.428 | -0.403
NDUFV1 C187 | 0.217 | 0.0536 | 0.483 | -0.073
NKX2-5 C114 | -0.163 | 0.0303 | 0.505 | 0.327

Rewritten tab-delimited: part of the list above
Target	log2 mean competition ratio ([1]; 50 µM)	log2 mean competition ratio ([1]; 200 µM)	log2 mean competition ratio ([2]; 50 µM)	log2 mean competition ratio ([2]; 200 µM)
NOP10 C28 (UniProt Q9NPE3)	0.371	-0.343	0.24	0.157
NID1 C1135	0.0869	0.00528	-0.438	-0.101

More entries follow:

Target | log2 mean competition ratio ([1]; 50 µM) | log2 mean competition ratio ([1]; 200 µM) | log2 mean competition ratio ([2]; 50 µM) | log2 mean competition ratio ([2]; 200 µM)
NLRX1 C735 (UniProt Q86UT6) | -0.0581 | 0.124 | -0.157 | -0.00328
NELFCD C582 (UniProt Q8IXH7) | -0.187 | 0.0876 | -0.713 | -0.105
NEK9 C556 (UniProt Q8TD19) | 0.089 | 0.0461 | -0.0228 | 0.0514
NECAP1 C12 (UniProt Q8NC96) | -0.109 | -0.329 | 0.169 | -0.129
NCAPG2 C184 (UniProt Q86XI2) | 0.04 | 0.31 | -0.0543 | 0.395
NFRKB C637 (UniProt Q6P4R8) | -0.177 | 0.0679 | 0.031 | 0.0243
NOMO3;NOMO2 C627;(C627) | 0.185 | -0.0245 | -0.479 | -0.359
NIN C1619 (UniProt Q8N4C6) | -0.0725 | 0.0452 | 0.169 | 0.143
NKRF C242 (UniProt O15226) | 0.247 | -0.143 | -0.0527 | 0.02
NDUFS1 C727 (UniProt P28331) | -0.351 | -0.0831 | -0.184 | 0.297
NAT10 C746 (UniProt Q9H0A0) | -0.325 | 0.34 | -0.112 | 0.371
NOP56 C384 (UniProt O00567) | -0.178 | -0.0101 | -0.00416 | 0.148
NLRX1 C779 (UniProt Q86UT6) | 0.0373 | 0.158 | -0.0538 | 0.0612
NBEA C457 (UniProt Q8NFP9) | -0.14 | -0.108 | -0.706 | -0.09
NCAPD3 C1389 (UniProt P42695) | 0.286 | -0.119 | 0.48 | -0.0689
NLGN1 C784 | -0.115 | 0.241 | -0.875 | -0.0895
NCAPG C119 (UniProt Q9BPX3) | 0.113 | 0.0215 | -0.00275 | -0.0849
NDRG1 C289 (UniProt Q92597) | -0.489 | -0.94 | -0.177 | -0.489
NDUFS6 C87 (UniProt O75380) | 0.0257 | 0.146 | -0.176 | 0.14
NFXL1 C748 (UniProt Q6ZNB6) | -0.139 | 0.0722 | -0.0692 | 0.0917
NEU3 C90 (UniProt Q9UQ49) | 0.0423 | -0.0613 | 0.0727 | -0.0604
NES C157 (UniProt P48681) | 0.664 | 0.159 | 0.39 | 0.0658
